# In the supplement of paper PMC4635364:
# Counter-ions that a name gives are not always drawn. Some of the results follow. Repeats in this data set agree poorly, so a single value says little.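 ReNCell VM, a human fetal ventral-midbrain neural progenitor line, was differentiated without mitogens. Blinded raters scored images stained for doublecortin (early neurons) or tyrosine hydroxylase (dopaminergic neurons) against untreated wells (0 = no change). Scores were averaged across repeats and both raters, and compounds averaging 2 or more were selected as hits for retesting.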
# Test system: ReNCell VM
# Assay: dopaminergic neuron differentiation score (TH+ cell fraction vs untreated, manual image score) (score (0 to 3)); higher = more TH+ dopaminergic neuron differentiation
# Conditions: library: LOPAC; 2 uM; 4 weeks; BDNF 10 ng/ml + GDNF 10 ng/ml
row,SMILES,dopaminergic neuron differentiation score
1,c1ccc2sc(C3(N4CCCCC4)CCCCC3)cc2c1 [BTCP hydrochloride],inactive: 0
2,CCn1cnc2c(Nc3cccc(Cl)c3)nc(N[C@@H]3CCCC[C@@H]3N)nc21,inactive: 0
3,CC(Cc1ccc(OCC(=O)O)cc1)NCC(O)c1cccc(Cl)c1 (centres undefined),inactive: 0
4,"CN1CC[C@@]2(C)c3cc(O)ccc3N(C)C12 (single isomer, unassigned; (-)) [(-)-Eseroline fumarate]",inactive: 0
5,"CN1[C@@H]2CC[C@H]1C[C@@H](OC(=O)c1cc(Cl)cc(Cl)c1)C2 [3-Tropanyl-3,5-dichlorobenzoate]",inactive: 0
6,O=C1CCCN1CC#CCN1CCCC1 [Oxotremorine sesquifumarate salt],inactive: 0

# Same assay, conditions: library: Natural; 2 uM; 4 weeks; BDNF 10 ng/ml + GDNF 10 ng/ml
row,SMILES,dopaminergic neuron differentiation score
1,CC1(C)S[C@@H]2[C@H](N)C(=O)N2[C@H]1C(=O)O [6-aminopenicillanic acid],inactive: 0
2,CN1CCCCC1c1ccc(-c2cccnc2)nc1 (centres undefined) [anabasamine],inactive: 0
3,NC1=NC(=O)C(c2ccccc2)O1 (centres undefined) [deltamine],inactive: 0

# Same assay, conditions: library: Phytochemical; 2 uM; 4 weeks; BDNF 10 ng/ml + GDNF 10 ng/ml
row,SMILES,dopaminergic neuron differentiation score
1,C/C=C(/C)C(=O)O[C@H]1CC[C@@]2(C)[C@@H]3CC[C@H]4[C@]5(O)C[C@H](O)[C@@]6(O)[C@@H](CN7C[C@@H](C)CC[C@H]7[C@@]6(C)O)[C@]5(O)C[C@]42O[C@]13O [Veratrine],inactive: 0
2,C[N+]1([O-])[C@@H]2CC(OC(=O)[C@H](CO)c3ccccc3)C[C@H]1[C@@H]1O[C@@H]12 (some centres undefined) [Genoscopolamine HBr],inactive: 0
3,CC(C)[C@H]1C(=O)O[C@@H]2CCN3CC=C(COC(=O)[C@](C)(O)[C@]1(C)O)[C@H]23 [Trichodesmine],inactive: 0

# Same assay, conditions: library: Prestwick; 2 uM; 4 weeks; BDNF 10 ng/ml + GDNF 10 ng/ml
row,SMILES,dopaminergic neuron differentiation score
1,CN(C)C(=O)Oc1cc(OC(=O)N(C)C)cc(C(O)CNC(C)(C)C)c1 (centres undefined) [Bambuterol hydrochloride],inactive: 0
2,C=CCC1(CC(C)C)C(=O)NC(=O)NC1=O [Butalbital],inactive: 0
3,O=C1CC[C@@]2(O)[C@H]3Cc4ccc(O)c5c4[C@@]2(CCN3CC2CC2)[C@H]1O5 [Naltrexone hydrochloride dihydrate],inactive: 0

# Same assay, conditions: library: Spectrum; 2 uM; 4 weeks; BDNF 10 ng/ml + GDNF 10 ng/ml
row,SMILES,dopaminergic neuron differentiation score
1,CC1(C)C2CC(=O)[C@]3(C)C(CC[C@@]4(C)[C@H](c5ccoc5)OC(=O)C5OC543)[C@@]2(C)[C@@H](O)C[C@H]1O (some centres undefined),inactive: 0
2,CCOC(=O)c1cncn1[C@H](C)c1ccccc1,inactive: 0
3,Oc1ccc(Cl)cc1Cc1cc(Cl)ccc1O,inactive: 1
4,NC(=O)c1cc([N+](=O)[O-])cc([N+](=O)[O-])c1,inactive: 0
5,COc1ccc(C(=O)O)cc1OC,inactive: 0
6,Cl[C@H]1[C@H](Cl)[C@@H](Cl)[C@@H](Cl)[C@H](Cl)[C@H]1Cl,inactive: 0
7,C[C@H]1O[C@@H](O[C@H]2[C@@H](O)C[C@H](O[C@H]3[C@@H](O)C[C@H](O[C@H]4CC[C@@]5(C)[C@H](CC[C@@H]6[C@@H]5CC[C@]5(C)[C@@H](C7=CC(=O)OC7)[C@@H](O)C[C@]65O)C4)O[C@@H]3C)O[C@@H]2C)C[C@H](O)[C@@H]1O,inactive: 0
8,COC(=O)[C@]1(C)CC[C@]2(C)CC[C@]3(C)C4=CC=C5C(=CC(=O)C(O)=C5C)[C@]4(C)CC[C@@]3(C)[C@@H]2C1,inactive: 0
9,Nc1nc(N)nc(NC2CC2)n1,inactive: 0
10,CCN(C)C(=O)Oc1cccc([C@H](C)N(C)C)c1,inactive: 0
11,O=C(O[C@H]1C[C@H]2CC[C@@H](C1)[N+]21CCCC1)C(O)(c1ccccc1)c1ccccc1,inactive: 0
12,C[C@]12CC[C@H]3[C@@H](CCC4=CC(=O)CC[C@@]43C)[C@@H]1CC[C@@H]2O,inactive: 0
13,c1ccc2nc(N3CCNCC3)ccc2c1,inactive: 0
14,C[N+]1(C)[C@@H]2C[C@@H](OC(=O)[C@H](CO)c3ccccc3)C[C@H]1[C@@H]1O[C@@H]12,inactive: 0
15,Cc1cccc(C)c1NC(=O)CN1CCCC1=O,inactive: 0
16,CCC1(CC)C(=O)C=CNC1=O,inactive: 0

# Single entries from the results shown.
# dopaminergic neuron differentiation score with `Nc1nc(N)nc(NC2CC2)n1` reads inactive: 0
# dopaminergic neuron differentiation score with `CCOC(=O)c1cncn1[C@H](C)c1ccccc1` reads inactive: 0
# dopaminergic neuron differentiation score with `CC1(C)C2CC(=O)[C@]3(C)C(CC[C@@]4(C)[C@H](c5ccoc5)OC(=O)C5OC543)[C@@]2(C)[C@@H](O)C[C@H]1O` (some centres undefined) reads inactive: 0
# dopaminergic neuron differentiation score with `NC(=O)c1cc([N+](=O)[O-])cc([N+](=O)[O-])c1` reads inactive: 0

# Same assay, conditions: library: Tocriscreen; 2 uM; 4 weeks; BDNF 10 ng/ml + GDNF 10 ng/ml
row,SMILES,dopaminergic neuron differentiation score
1,NC(N)=Nc1ccc2[nH]c3c(c2c1)C[C@@]1(O)[C@H]2Cc4ccc(O)c5c4[C@@]1(CCN2CC1CC1)[C@H]3O5 [GNTI dihydrochloride],inactive: 0
2,Cc1onc(O)c1CC(N)C(=O)O (racemic),inactive: 0
3,COc1ccc2c(c1)c(CCN1CCOCC1)c(C)n2C(=O)c1cccc(Cl)c1Cl,inactive: 0
4,C=CCN1C[C@H](C)N([C@H](c2ccc(C(=O)N(CC)CC)cc2)c2cccc(O)c2)C[C@H]1C,inactive: 0
5,"Cc1cc(C)cc(C(=O)OC2C[C@H]3CC[C@@H](C2)N3C)c1 (some centres undefined) [Tropanyl-3,5-dimethylbenzoate]",inactive: 0
6,"c1ccc(C2CNCc3ccccc32)cc1 (centres undefined) [4-Phenyl-1,2,3,4-tetrahydroisoquinoline hydrochloride]",inactive: 0
7,CCCN(CCC)C1CCc2cccc(O)c2C1 (centres undefined) [8-Hydroxy-DPAT hydrobromide],inactive: 0
8,CCCN(CCC)C1CCc2ccc(O)cc2C1 (centres undefined) [7-Hydroxy-DPAT hydrobromide],inactive: 0
